# From patent publication US12502388B2, “Lanthionine synthetase C-like 2-based therapeutics” (NImmune Biopharma, Inc., priority 2014, dated 2025)
# Protein sequences, listed by entry. Tags and fused reporters are not part of them.
# UniProt Q9NS86, whole entry: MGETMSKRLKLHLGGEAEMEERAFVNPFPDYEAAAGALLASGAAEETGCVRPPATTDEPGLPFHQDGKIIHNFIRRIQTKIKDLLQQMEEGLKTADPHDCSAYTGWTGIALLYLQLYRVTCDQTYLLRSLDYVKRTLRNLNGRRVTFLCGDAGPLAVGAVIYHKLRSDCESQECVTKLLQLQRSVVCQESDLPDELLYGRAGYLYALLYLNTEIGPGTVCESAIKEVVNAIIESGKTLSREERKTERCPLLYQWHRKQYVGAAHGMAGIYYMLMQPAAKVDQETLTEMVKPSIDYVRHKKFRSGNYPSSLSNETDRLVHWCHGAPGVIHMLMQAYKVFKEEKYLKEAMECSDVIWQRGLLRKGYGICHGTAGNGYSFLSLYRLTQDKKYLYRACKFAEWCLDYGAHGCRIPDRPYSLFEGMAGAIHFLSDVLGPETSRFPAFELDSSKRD
# A number of entries come with more than one value. They are shown here; other results are not. The source may hold further records. Values that stand side by side do not match, cause unknown; they may come from other doses, times, organisms or constructs than stated.
# Target: LANCL2 (Homo sapiens, UniProt Q9NS86)
# Assay: Surface plasmon resonance (BIACORE T200) binding to immobilized LANCL2
# Conditions: read-out: SPR KD value; unit inferred
structure (smiles),measurement,value
O=C(Nc1cccc(-c2nc3ccccc3[nH]2)c1)c1ccc(C(=O)Nc2cccc(-c3nc4ccccc4[nH]3)c2)cc1,Kd,2.3 µM and 6.3 µM
